Holding throughout (assay): cleaved PARP positive nuclei fraction relative to DMSO control; melanoma cells; higher = more apoptosis
Common to all, as to conditions: library dose: low library concentration; 72 h

Experiment [1] deals with MZ2-MEL.
Experiment [2] concerns MeWo.
The test system of experiment [3] is RPMI7951.
For experiment [4], the system named is RVH-421.
Experiment [5] relates to SkMel28.
For experiment [6], the system named is SkMel30.
Experiment [7] concerns SkMel5.
The test system of experiment [8] is UACC257.
Experiment [9] relates to UACC62.
In experiment [10] the test system is SkMel2.

The list shows a part of the results. Many values rest on one well or one pass, so single values are uncertain.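 The apoptosis fraction was the count of cleaved-PARP antibody-stained nuclei relative to all DNA-stained nuclei, imaged in 1,536-well plates. Screening doses were set so most cells survived, and baseline and induced cleaved-PARP levels vary greatly across cell lines.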

The source of these data is the supplement of paper PMC4604168 (melanoma cell lines).

For the compound `C[C@]1(c2nc3c(C(N)=O)cccc3[nH]2)CCCN1` [Veliparib] + COc1ccc(-c2ccc3c(N4CCOCC4)nc(N4C[C@@H](C)O[C@@H](C)C4)nc3n2)cc1CO [KU0063794] (first compound 1.4 µM, partner dose 0.02 µM), the “cleaved PARP positive nuclei fraction” value in experiment [1] worked out at 30.6%; in [2], 76.8%; in experiment [3] it was 200%; in [4], 25.5%; in experiment [5], 155%; in [6], 120%. The “cleaved PARP positive nuclei fraction” value in [7] was 59.3%; in experiment [8], 163%; in experiment [9], 52.1%.

Regarding `NC(=O)Nc1cc(-c2cccc(F)c2)sc1C(=O)N[C@H]1CCCNC1` + O=C(Nc1ccccc1)c1cc([N+](=O)[O-])ccc1Cl [GW9662] (first compound 0.02 µM, partner dose 2 µM), the “cleaved PARP positive nuclei fraction” value amounted to 247% in experiment [1]; 59% in experiment [2]; 160% in experiment [3]; 98.6% in experiment [4]; 100% in experiment [5]; 198% in [6]. The “cleaved PARP positive nuclei fraction” value is 103% in experiment [7], 245% in [8] and 122% in [9].

Turning to `Nc1cccc2c1CN(C1CCC(=O)NC1=O)C2=O` (stereo not given) [lenalidomide] + N#Cc1c(O)c2c(-c3ccc(-c4ccccc4O)cc3)csc2[nH]c1=O [A769662] (first compound 1 µM, partner dose 2 µM), the “cleaved PARP positive nuclei fraction” value was 67.3% in experiment [1]; 214% in experiment [2]; 164% in [3]; 37.3% in experiment [4]; 210% in experiment [5]; 47% in experiment [6]. In addition, the entries for the “cleaved PARP positive nuclei fraction” value in experiment [7], in experiment [8] and in experiment [9] were 59.9%, 59% and 206%, respectively.

As for `O=C(CCCCCCC(=O)Nc1ccccc1)NO` [vorinostat] + Cc1ccc(NC(=O)c2cccc(N(C)C)c2)cc1NC(=O)c1ccc(O)cc1 [ZM336372] (first compound 0.08 µM, partner dose 2 µM), the “cleaved PARP positive nuclei fraction” value in [2] stood at 109%; in experiment [3] it was 126%; in [4], 103%; in experiment [5], 150%; in experiment [10], 36.3%; in experiment [6], 65.2%. Besides, the “cleaved PARP positive nuclei fraction” value in [7] came out at 703%; in experiment [8], 51.3%; in [9], 89.4%.

For the compound `Cn1cncc1[C@@](N)(c1ccc(Cl)cc1)c1ccc2c(c1)c(-c1cccc(Cl)c1)cc(=O)n2C` [tipifarnib] + CC(C)CCN1c2nc(Nc3cc(F)c(O)c(F)c3)ncc2N(C)C(=O)C1C [BID1870] (first compound 0.01 µM, partner dose 0.2 µM), the “cleaved PARP positive nuclei fraction” value is 89.8% in experiment [1]; 198% in experiment [2]; 25.5% in experiment [3]; 45.4% in experiment [4]; 103% in [5]; 136% in [6]. In addition, the “cleaved PARP positive nuclei fraction” value in experiment [7] came out at 25.4%; in experiment [8], 110%; in experiment [9] it was 252%.

As to `C#Cc1cccc(Nc2ncnc3cc(OCCOC)c(OCCOC)cc23)c1` [erlotinib] + Nc1cccc2c1CN(C1CCC(=O)NC1=O)C2=O [lenalidomide] (first compound 0.8 µM, partner dose 1 µM), the “cleaved PARP positive nuclei fraction” value in [1] turned out to be 95.2%; in experiment [2], 136%; in experiment [3], 71.2%; in experiment [4] it was 115%; in [5], 43.7%; in [6] it was 101%. Also, the “cleaved PARP positive nuclei fraction” value in [9] came to 87.8%.

With `C[C@]1(c2nc3c(C(N)=O)cccc3[nH]2)CCCN1` [Veliparib] + CCCCCCCCCCCC1=C(O)C(=O)C=C(O)C1=O [Embelin] (first compound 1.4 µM, partner dose 1.2 µM), the “cleaved PARP positive nuclei fraction” value worked out at 91.9% in [1]; 94.7% in experiment [2]; 43% in experiment [3]; 78.6% in experiment [4]; 144% in experiment [5]; 19.1% in experiment [6]. Moreover, the results for the “cleaved PARP positive nuclei fraction” value in experiment [7], in [8] and in [9] were 41.9%, 95.2% and 48.2%, respectively.

For the compound `C[C@@H]1CCN(C(=O)CC#N)C[C@@H]1N(C)c1ncnc2[nH]ccc12` + O=C(O)C(=O)Nc1sc2c(c1C(=O)O)CCNC2 [TCS401] (first compound 1 µM, partner dose 1.66667 µM), the “cleaved PARP positive nuclei fraction” value in experiment [1] was determined as 55.3%; in experiment [2], 53.9%; in experiment [3], 81.4%; in experiment [4], 90%; in [5], 108%; in [6] it was 27.5%. Also, the “cleaved PARP positive nuclei fraction” value in experiment [7] is 68.1%; in experiment [8], 102%; in [9], 77.3%.

As for `Cn1nnc2c(C(N)=O)ncn2c1=O` [temozolomide] + O=C(O)C(=O)Nc1sc2c(c1C(=O)O)CCNC2 [TCS401] (first compound 2 µM, partner dose 1.66667 µM), the “cleaved PARP positive nuclei fraction” value in experiment [1] came out at 85.6%; in experiment [2] it was 48.9%; in [3], 153%; in [4], 135%; in experiment [5], 65.9%; in experiment [6], 73.1%. The results for the “cleaved PARP positive nuclei fraction” value in [7], in experiment [8] and in [9] were 53.9%, 78.2% and 32.7%, respectively.

As for `C[C@@H]1CCN(C(=O)CC#N)C[C@@H]1N(C)c1ncnc2[nH]ccc12` + CCc1ccc(CCOc2ccc(CC3SC(=O)NC3=O)cc2)nc1 [pioglitazone] (first compound 1 µM, partner dose 2 µM), the “cleaved PARP positive nuclei fraction” value in [1] was 138%; in [2], 49.9%; in experiment [3], 111%; in experiment [4] it was 103%; in [5] it was 99.1%; in experiment [6], 114%. Further, the “cleaved PARP positive nuclei fraction” value in [7] amounted to 68.5%; in experiment [8], 93.7%; in experiment [9] it was 108%.

In the case of `Cn1c(Nc2ccc(C(F)(F)F)cc2)nc2cc(Oc3ccnc(-c4ncc(C(F)(F)F)[nH]4)c3)ccc21` + Oc1nc(-c2ccc(C(F)(F)F)cc2)nc2c1CSCC2 [XAV939] (first compound 0.08 µM, partner dose 2 µM), the “cleaved PARP positive nuclei fraction” value in [1] stood at 177%; in [2], 165%; in [3], 63.3%; in experiment [4], 277%; in experiment [5], 192%; in [6], 88.6%. Moreover, the “cleaved PARP positive nuclei fraction” value in experiment [7] was 288%; in [8] it was 1370%; in [9], 208%.

Consider `C=CCn1c(=O)c2cnc(Nc3ccc(N4CCN(C)CC4)cc3)nc2n1-c1cccc(C(C)(C)O)n1` + OCCn1cc(-c2cnc3nnn(Cc4ccc5ncccc5c4)c3n2)cn1 [PF04217903] (first compound 0.02 µM, partner dose 1 µM), for which the “cleaved PARP positive nuclei fraction” value in [2] is 84.9%; in [3], 72.5%; in experiment [4], 318%; in experiment [5], 79.1%; in [10] it was 52.5%; in experiment [6] it was 245%. For the same compound, the “cleaved PARP positive nuclei fraction” value was 230% in experiment [7], 20.2% in experiment [8] and 50.4% in [9].

Consider `C=CCn1c(=O)c2cnc(Nc3ccc(N4CCN(C)CC4)cc3)nc2n1-c1cccc(C(C)(C)O)n1` + CN(NC(=O)CC(=O)NN(C)C(=S)c1ccccc1)C(=S)c1ccccc1 [STA4783] (first compound 0.02 µM, partner dose 0.006 µM), for which the “cleaved PARP positive nuclei fraction” value in experiment [2] stood at 41.5%; in experiment [3], 152%; in experiment [4], 132%; in [5], 39.1%; in [10], 52.9%; in experiment [6], 56.3%. Besides, the “cleaved PARP positive nuclei fraction” value in [7] amounted to 228%; in [8], 75.3%; in experiment [9], 165%.
